# Experimental data from patent US6958416B2, “Valproyltaurinamide derivatives as anticonvulsant amd CNS active agents” (Yissum Research Development Company of the Hebrew …, priority 2001, dated 2005).
# Tested on: maximal electroshock seizure (MES)
# Assay: maximal electroshock seizure test (MES)
# Format: in vivo, rats
# Conditions: protective index PI=TD50/ED50, MES
# Source text: The first model the maximal electroshock seizure test (MES), is used to show efficacy for antiepileptic agents against partial and generalized seizure type epilepsy, the common epilepsy among therapy resistant epileptic patients. The second model, the subcutaneous pentylenetetrazole test (s.c. Met) which measures seizure threshold and is a standard screening procedure to show efficacy for agents against […] seizures. In these studies, convulsions were inhibited or prevented after oral (p.o.) and intraperitoneal (ip) administration of the compounds.
structure (smiles),measurement,setting,value
"CCCC(CCC)C(=O)NCCS(=O)(=O)N(C)C [B, N-(2-Propylpentanoyl)taurine-N′,N′-dimethylamide]",PI (MES) ip,,3.2
"CCCC(CCC)C(=O)NCCS(=O)(=O)NC(C)C [C, N-(2-Propylpentanoyl)taurine-N′-isopropylamide]",PI (MES) ip,,12.1
"CCCC(CCC)C(=O)O [VPA, valproic acid, reference compound]",PI (MES) (po),po,0.6
"CCCC(CCC)C(=O)NCCS(N)(=O)=O [Compound A, N-(2-Propylpentanoyl)taurinamide]",PI (MES) ip,,>7
